Test results as given in paper PMC10904395, “The Deinococcus protease PprI senses DNA damage by directly interacting with single-stranded DNA”.
A negative result means that nothing was seen under these conditions. At least one verdict rests on a figure or table, not on a statement of the authors. The exact form of at least one protein or probe is not confirmed.

Molecular target: DG-PprI (IrrE) (Deinococcus geothermalis) (UniProt Q1J1D6)
Test: EMSA
Settings: EMSA: 150 mM NaCl, 20 mM Tris-HCl pH 8.0, 0.1 mg/ml BSA, 0.1 uM FAM-labeled nucleic acid, 0/1/2 uM protein, room temperature 30 min, 10% native PAGE in 1x TB, recombinant protein, residues 1-289, protein details: tag removed, label: 5' FAM, single-stranded DNA

Sequence	binding result	binding result (no stable complex below 20 nt)	further results
GTTATCACAGGTATCAGTAGAG [22nt ssDNA]	binds	–	–
GTTATCAGAG [10nt ssDNA]	–	no binding	–
GTTATCACAGGTTATCTAGAGGTAGTAGAG [30nt ssDNA]	binds	–	–
GTTATCACAGTCAGAG [16nt ssDNA]	–	no binding	–
GTTATCACAGGTTATCAGAG [20nt ssDNA]	–	–	binding result (length threshold): binds
GTTATCACAGGTATCAGAGTATAGAG [26nt ssDNA]	binds	–	–
GTATCAAGAGTG [12nt ssDNA]	–	no binding	–
GTTATCACAGGTACAGAG [18nt ssDNA]	–	no binding	–
GTCAGAG [7nt ssDNA]	–	no binding	–
GTTATCACAGGTATCAGAGTAGAG [24nt ssDNA]	binds	–	–
GTTATCACAGGTTATCAGAGGTATAGAG [28nt ssDNA]	binds	–	–
GTATCAGAGCAGTG [14nt ssDNA]	–	no binding	–
GTTATCACAGGTTATCTAGAGGTAGTAGAGTCAGAGGTAG [40nt ssDNA]	binds	–	–
GTTACAGAG [9nt ssDNA]	–	no binding	–
GTTCAGAG [8nt ssDNA]	–	no binding	–
